We go through two molecules from article PMC3930493.

By UniProt entry, the sequences of proteins in these tests, tags left out. Where a name states a change or a piece, a line headed by the entry shows the natural chain unless it says otherwise.
UniProt A1ZBJ1: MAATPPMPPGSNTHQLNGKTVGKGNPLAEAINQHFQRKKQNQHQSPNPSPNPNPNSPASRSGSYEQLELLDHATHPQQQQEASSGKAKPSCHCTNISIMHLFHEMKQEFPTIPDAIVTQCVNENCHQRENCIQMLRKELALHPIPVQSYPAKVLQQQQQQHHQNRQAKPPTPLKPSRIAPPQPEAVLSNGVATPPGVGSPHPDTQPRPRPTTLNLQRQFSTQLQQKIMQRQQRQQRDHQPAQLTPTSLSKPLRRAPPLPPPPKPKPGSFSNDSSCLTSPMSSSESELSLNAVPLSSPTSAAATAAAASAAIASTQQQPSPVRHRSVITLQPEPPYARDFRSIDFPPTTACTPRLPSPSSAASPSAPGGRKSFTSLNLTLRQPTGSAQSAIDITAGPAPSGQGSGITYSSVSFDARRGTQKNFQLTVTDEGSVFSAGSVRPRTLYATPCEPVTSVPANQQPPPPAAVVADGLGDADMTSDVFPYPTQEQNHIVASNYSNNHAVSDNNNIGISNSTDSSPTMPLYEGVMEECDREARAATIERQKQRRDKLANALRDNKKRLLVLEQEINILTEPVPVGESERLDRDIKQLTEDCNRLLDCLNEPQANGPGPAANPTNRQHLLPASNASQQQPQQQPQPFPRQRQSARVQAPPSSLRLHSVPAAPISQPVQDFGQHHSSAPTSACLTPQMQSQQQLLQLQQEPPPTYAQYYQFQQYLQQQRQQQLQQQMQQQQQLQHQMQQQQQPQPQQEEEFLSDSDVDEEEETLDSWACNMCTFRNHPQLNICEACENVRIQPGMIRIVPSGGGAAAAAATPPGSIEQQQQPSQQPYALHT

This assay has as its target Drosophila TAB2-V5 (TAK1-associated Binding Protein 2) (D. melanogaster) (UniProt A1ZBJ1). The experiment in a line: co-IP; S2 cells co-transfected, lysed 48 hrs post-transfection in RIPA buffer; anti-V5 agarose 2 hours at 4°C; washes with 900 mM NaCl then 150 mM NaCl CoIP wash buffer; 10% SDS PAGE, immunoblot with anti-HA. For orientation: A western blot detects proteins with antibodies after separation by electrophoresis.

Results are given in words; binding and its absence hold for the method and conditions named. In cells and extracts the contact can be indirect. A result given as binding can be weak or reduced; the word gives no strength. Sequences can lack the tags named with a protein.

B1: Drosophila Trabid-HA (enzyme, UniProt Q9VH90 1-778)
chain: MCDTKDDAQKWKCETCTYENYPSSLKCTMCQASKPLLNEDIFRLSPAQESCTVAEEAAAVEVAVMSPTPSSTCYSLQPQSQARQSNVADSEKWPCKVCTYLNWPRSLRCVQCCTKRGGEAIERGKKDMDNEADGDRAGEALQALRISGSEENLANKPVQLIGATASHRLSLSRGIDDATHLNNLANASHNQSQSQHRQPVLQQQMQLQLQPQQQRESSSSAAVPPQQQKQCYVSKWACNSCTYENWPRSIKCSMCGKTREREISGSQNDLHASSSLNSQEENQQQLQQPNVDTVSVNNSFNKKHIYQLGSSETINNCDTLQERQERRQRQIRRQVDWQWLNACLGVVENNYSAVEAYLSCGGNPARSLTSTEIAALNRNSAFDVGHTLIHLAIRFHREEMLPMLLDQISGSGPGIKRVPSYVAPDLAADIRRHFANTLRLRKSGLPCHYVQKHATFALPAEIEELPIPIQEQLYDELLDRDAQKQLETPPPALNWSLEITARLSSRMFVLWNRSAGDCLLDSAMQATWGVFDRDNILRRALADTLHQCGHVFFTRWKEYEMLQASMLHFTLEDSQFEEDWSTLLSLAGQPGSSLEQLHIFALAHILRRPIIVYGVKYVKSFRGEDIGYARFEGVYLPLFWDQNFCTKSPIALGYTRGHFSALVPMEPFTRIDGRRDDVEDVTYLPLMDCELKLLPIHFLTQSEVGNEESMMRQWLDVCVTDGGLLVAQQKLSKRPLLVAQMLEEWLNHYRRIAQVITAPFIRRPQITHYSSDGDSDEE
On to B1, for which the binding entry is recorded as “binds weakly”.

B2: Drosophila TAK1-HA (TGF-beta Activating Kinase 1) (protein, UniProt Q9V3Q6 1-678)
chain: MATASLDALQAAYVDFSEITLREKVGHGSYGVVCKAVWRDKLVAVKEFFASAEQKDIEKEVKQLSRVKHPNIIALHGISSYQQATYLIMEFAEGGSLHNFLHGKVKPAYSLAHAMSWARQCAEGLAYLHAMTPKPLIHRDVKPLNLLLTNKGRNLKICDFGTVADKSTMMTNNRGSAAWMAPEVFEGSKYTEKCDIFSWAIVLWEVLSRKQPFKGIDNAYTIQWKIYKGERPPLLTTCPKRIEDLMTACWKTVPEDRPSMQYIVGVMHEIVKDYTGADKALEYTFVNQQIVTKESDGTVAAQPDSLSSQEGELSPSSTQLTPTTAANANVNAIAISKTTTSSMTENTSSTSSDITPTNSGQLDNNPLFYMVTNRWDAIPEEESNESRNDSFNLTSSAEATQRLETIRNGMILMACKPMEQLTLDVEANGFDLSPSESSSSSTNAKSDGRERLTVTDTKPVMMTTDLSNNNGGIHAHSNGLLSHANGWQARDEELQEQEHEQEIVNSLDVDVDPDEDENDGTEQSLAEILDPELQPEPPIPNDAESQLIYRDHRHMAKEYLSVDTNLYYAQDFKDKLIVQMDRTEREQKQELLRKMKDKEGLQSLYNNLQQQYASRQLAAGHHPQPHPHPHPNQLQHPHSHPPMHFLQDEGCGLLPGSVCGGSESVEEGWVVIPPHHNA
Turning to B2, the binding result is on record as “binds”.
